In the supplement of paper PMC11098740:
The list shows a part of the results. Many values rest on one well or one pass, so single values are uncertain.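 The assay uses a mixed pool of 41 HAP1 clones in which 61 cancer-associated proteins bear intron-inserted fluorescent tags, and clones are distinguished by image pattern. Results are compared against DMSO-treated control wells, and the BRD4 degrader dBET6 is the positive control.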

By UniProt entry, the sequences of proteins in these tests, tags left out.
UniProt O14980, whole entry: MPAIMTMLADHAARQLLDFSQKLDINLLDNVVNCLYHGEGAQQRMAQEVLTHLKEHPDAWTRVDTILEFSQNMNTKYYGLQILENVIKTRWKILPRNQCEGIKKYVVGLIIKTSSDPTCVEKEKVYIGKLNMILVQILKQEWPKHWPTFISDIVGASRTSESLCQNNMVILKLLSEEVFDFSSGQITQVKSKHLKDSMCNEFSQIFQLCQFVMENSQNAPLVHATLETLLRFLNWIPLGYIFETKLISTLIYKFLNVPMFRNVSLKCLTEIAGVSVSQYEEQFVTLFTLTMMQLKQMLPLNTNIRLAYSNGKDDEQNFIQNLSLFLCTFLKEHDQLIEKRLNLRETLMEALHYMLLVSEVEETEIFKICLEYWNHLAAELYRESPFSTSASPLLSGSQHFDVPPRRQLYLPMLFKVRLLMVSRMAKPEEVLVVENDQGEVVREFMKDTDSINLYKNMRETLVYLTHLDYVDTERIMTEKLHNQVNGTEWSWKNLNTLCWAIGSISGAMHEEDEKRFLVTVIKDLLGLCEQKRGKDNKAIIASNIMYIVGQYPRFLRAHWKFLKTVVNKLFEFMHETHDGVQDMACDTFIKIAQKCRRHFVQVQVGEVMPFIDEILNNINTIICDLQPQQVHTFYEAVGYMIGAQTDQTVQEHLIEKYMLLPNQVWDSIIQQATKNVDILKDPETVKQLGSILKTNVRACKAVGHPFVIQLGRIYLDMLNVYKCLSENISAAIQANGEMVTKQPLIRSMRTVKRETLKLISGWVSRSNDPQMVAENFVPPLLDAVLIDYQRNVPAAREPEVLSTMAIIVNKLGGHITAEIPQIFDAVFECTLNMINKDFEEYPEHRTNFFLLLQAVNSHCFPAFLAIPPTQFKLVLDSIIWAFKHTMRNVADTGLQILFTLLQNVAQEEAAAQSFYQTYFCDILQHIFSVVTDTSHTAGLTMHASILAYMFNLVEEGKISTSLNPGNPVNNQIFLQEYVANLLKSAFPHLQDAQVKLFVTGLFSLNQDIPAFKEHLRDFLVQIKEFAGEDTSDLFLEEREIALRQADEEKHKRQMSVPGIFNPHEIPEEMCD

Legend:
[1] = molecular target: XPO1 (intron 15 mScarlet tag, HAP1) (UniProt O14980); test: XPO1 fluorescence intensity change vs DMSO (log2 fold change); higher = more XPO1 protein; conditions: 6 h
[2] = molecular target: BRD4 (intron 10 mScarlet tag, HAP1) (UniProt O60885); test: BRD4 median nuclear fluorescence intensity change vs DMSO (log2 fold change); higher = more BRD4 protein; conditions: 6 h

Row | SMILES | XPO1 fluorescence intensity change (log2) [1] | BRD4 median nuclear fluorescence intensity change (log2) [2]
1 | CC(=O)c1c(C)cc(C)c(COC(=O)Cc2ccc(N3CCCC3=O)cc2)c1C (10 µM) | 0.0156 | -0.0294
2 | COc1ccc(C(=O)Nc2ncc(Cc3ccc(Cl)cc3)s2)cc1 (1 µM) | 0.0257 | 0.0918
3 | COc1ccc(C(C)=O)cc1COC(=O)c1c(C)noc1C(C)C (10 µM) | -0.16 | 0.00329
4 | Cc1ccc(NC(=O)c2nnc(CCl)s2)cc1 (10 µM) | 0.0601 | -0.00647
5 | O=C(O)CSc1cc(NS(=O)(=O)c2ccc(Br)cc2)c2ccccc2c1O (10 µM) | -0.165 | -0.0604
6 | NNC(=O)c1cn(-c2ccccc2)nc1-c1ccc(F)cc1 (10 µM) | -0.169 | -0.0142
7 | CN(C)C(=O)c1ccc(OCc2ccc(F)c3cccnc23)cc1 (10 µM) | -0.0117 | 0.0804
8 | CCOc1cc(/C=C/C(=O)c2ccc(O)c(CCCl)c2)cc(Br)c1OC (10 µM) | -0.46 | -0.105
9 | Cc1cc(C(C)Nc2ncccc2C#N)c(C)o1 (configuration not stated) (10 µM) | 0.21 | 0.11
10 | COc1cccc(CS(=O)(=O)CCC(=O)Nc2ccc3c(c2)CCC3)c1 (1 µM) | -0.0965 | -0.000781
11 | COc1ccc(/C=C/C(=O)c2ccc(O)c(CCCl)c2)cc1O (10 µM) | -0.724 | -0.0421
12 | CCN(CC)c1nc2sc(C(=O)NCCCn3cccn3)cc2s1 (10 µM) | -0.0589 | -0.0416
13 | Cc1ccc(C(=O)N(CC(=O)Nc2ccccc2Br)Cc2ccco2)cc1 (10 µM) | 0.0652 | -0.0141
14 | COc1ccc(-n2c(CCl)nc3ccccc32)cc1 (10 µM) | -0.0863 | 0.0219
15 | Cc1sc2nc(-c3ccccn3)nc(NCCCO)c2c1-c1ccccc1 (10 µM) | -0.024 | 0.0477
16 | CN(CCCc1cc(-c2ccccc2)no1)C(=O)Nc1ccncc1 (1 µM) | 0.0176 | 0.0573
17 | Cc1cccc(N2CCN(C(=O)c3c(-c4ccccc4)noc3C)CC2)c1C (10 µM) | -0.261 | -0.031
18 | COc1ccc(Cl)cc1NC(=O)CN(C)C(=O)c1cn2ccc(C)cc2n1 (10 µM) | -0.0908 | -0.033
19 | CSc1ccc(NC(=O)c2cc(Br)ccc2O)cc1 (10 µM) | -0.0909 | -0.00834
20 | Cc1cc(C)c(S(=O)(=O)NCCc2c(C)[nH]c3ccc(Br)cc23)c(C)c1 (10 µM) | -0.0944 | -0.0231
21 | COc1ccc(CN(C)c2ncnc3sccc23)cc1 (10 µM) | -0.0688 | -0.0362

Row | SMILES | XPO1 fluorescence intensity change (log2) [1] | BRD4 median nuclear fluorescence intensity change (log2) [2]
22 | CC1CC2(C)Oc3ccccc3CC2C(C)C1CNCCCN(C)C (configuration not stated) (10 µM) | -0.116 | 0.0447
23 | COc1cc(C(=O)OCCOc2ccccc2F)cc(OC)c1OC (10 µM) | -0.0348 | 0.016
24 | CCn1cc(NC(=O)c2cc(-c3ccccc3OC)on2)cn1 (1 µM) | -0.238 | -0.0239
25 | O=C(CCN1CCSC1=O)NCc1nccc2ccccc12 (10 µM) | 0.0611 | 0.03
26 | Cc1cc(N2CCN(CCOc3ccc(Cl)cc3)CC2)nc(N)n1 (10 µM) | 0.0643 | -0.0246
27 | Cc1cn2cc(NC(=O)COCc3ccccc3Cl)ccc2n1 (10 µM) | 0.245 | 0.0545
28 | Cc1nc(C)c(C(=O)NC(C)c2ccc(-c3ccccc3)cc2)s1 (configuration not stated) (10 µM) | 0.0701 | 0.0412
29 | N#CC(C#N)=C1C=CC=CN1/C(=C/c1cccs1)C(=O)c1ccc(Br)cc1 (10 µM) | -0.408 | 0.149
30 | COc1ccc(OCc2noc(CCl)n2)cc1 (10 µM) | -0.131 | 0.0383
31 | O=c1[nH]c2c(c3ccccc13)C(c1ccccc1)N1C=CN=CC1=N2 (configuration not stated) (10 µM) | -0.0274 | -0.0284
32 | Cc1cc(C(C)Nc2ncnc3c2cnn3CCC#N)c(C)s1 (configuration not stated) (10 µM) | 0.213 | 0.0796
33 | O=C(CSc1cccc[n+]1[O-])Nc1ccc(N2CCc3ccccc32)cc1 (10 µM) | 0.0434 | 0.0689
34 | CC(=O)c1c(C)cc(C)c(CN(Cc2ccc3c(c2)CCO3)C2CCN(C(C)=O)CC2)c1C (1 µM) | 0.131 | 0.00664
35 | Nc1nc2c(c(=O)[nH]1)N1C(=O)N(c3ccc(C(=O)N[C@@H](CCC(=O)O)C(=O)O)cc3)CC1CN2 (some centres not stated) (5 µM) | 0.0534 | -0.0571
36 | COc1cc(S(=O)(=O)NCCc2c(C)[nH]c3ccc(Br)cc23)c(C)cc1C (10 µM) | -0.0703 | 0.102
37 | Cc1ccc(Cl)cc1N1CCN(C(=O)NCc2cccs2)CC1 (10 µM) | 0.305 | 0.233
38 | CN(C)C(=O)c1ccc(CNC(=O)CCCOc2ccc(C(C)(C)C)cc2)cc1 (10 µM) | -0.135 | 0.0499
39 | COc1ccccc1C(=O)Nc1nc2ccccc2s1 (10 µM) | 0.058 | -0.0306
40 | CCOC(=O)c1ccsc1NC(=O)CN(CC)Cc1ccc(OC)c(F)c1 (10 µM) | -0.0392 | 0.0461
41 | O=C(Cc1c(F)cccc1Cl)Nc1nc(-c2ccccn2)cs1 (10 µM) | 0.104 | 0.0531
42 | O=C(Nc1cccc(C(F)(F)F)c1)c1ccccc1O (10 µM) | -0.192 | 0.0764

Three structures out of the list, ordered by length of the SMILES, largest number first:
Row | SMILES | XPO1 fluorescence intensity change (log2) [1] | BRD4 median nuclear fluorescence intensity change (log2) [2]
28 | Cc1nc(C)c(C(=O)NC(C)c2ccc(-c3ccccc3)cc2)s1 (configuration not stated) (10 µM) | 0.0701 | 0.0412
41 | O=C(Cc1c(F)cccc1Cl)Nc1nc(-c2ccccn2)cs1 (10 µM) | 0.104 | 0.0531
21 | COc1ccc(CN(C)c2ncnc3sccc23)cc1 (10 µM) | -0.0688 | -0.0362

The list goes on.

Row | SMILES | XPO1 fluorescence intensity change (log2) [1] | BRD4 median nuclear fluorescence intensity change (log2) [2]
43 | CCOC(=O)C1=C(CCl)NC(=O)NC1c1ccc(Cl)cc1 (configuration not stated) (10 µM) | -0.0545 | 0.0963
44 | CCCCn1c(=O)[nH]c(=O)c2c1nc(CCl)n2CC (10 µM) | 0.0953 | 0.0623
45 | Brc1cccc(N2CCC(CNc3ncnc4ncccc34)C2)c1 (configuration not stated) (10 µM) | 0.0756 | 0.0425
46 | CN(C)c1ccc(C(=NC(=O)c2ccccc2NS(=O)(=O)c2ccc(F)cc2)c2ccc(N(C)C)cc2)cc1 (10 µM) | 0.154 | 0.166
47 | Nc1ccccc1C(=O)Nc1ccc(Cl)cn1 (0.1 µM) | -0.165 | 0.0367
48 | Cc1ccc2[nH]c(C(=O)N(C)Cc3ccc(Br)o3)cc2c1 (10 µM) | -0.568 | 0.00846
49 | O=C(Nc1ccc(N2CCCC2=O)cc1)c1cccs1 (10 µM) | -0.157 | -0.0887
50 | O=C1NC(c2cc(Cl)c3c(c2)OCO3)Nc2ccccc21 (configuration not stated) (10 µM) | -0.0691 | -0.107
51 | O=C(Nc1ccc(-n2ccnc2)c(F)c1)C1CC(c2ccccc2)=NO1 (configuration not stated) (10 µM) | 0.0554 | 0.0566
52 | O=C(CCCl)NC(=O)Nc1ccc2c(c1)OCO2 (10 µM) | 0.0745 | 0.0184
53 | COc1cc(-c2noc(CCl)n2)ccc1OC(F)F (10 µM) | -0.498 | 0.0682
54 | Cc1occc1C(=O)NCc1ccc(Oc2ccc(F)cc2)cc1 (10 µM) | -0.231 | 0.0942
55 | CNc1nc(-c2ccc3c(N)n[nH]c3c2)cc(N2C[C@@H](C(=O)NC3CCCCC3)CC[C@H]2C)n1 (20 µM) | -0.0633 | 0.0297
56 | Cn1cnnc1NC(=O)c1cc2c(s1)-c1ccccc1CC2 (10 µM) | 0.0892 | 0.0454
57 | CCc1sc(C(=O)OCC(=O)NCc2ccco2)cc1C (10 µM) | -0.0417 | 0.0813
58 | CC(=O)c1cccc(NC(=O)C(C)N(C)Cc2ccccc2N2CCCCC2)c1 (configuration not stated) (10 µM) | -0.136 | 0.0271
59 | O=C(c1ccc(CS(=O)(=O)c2ccccc2)o1)N1CCc2ccc(O)cc2C1 (0.1 µM) | 0.0267 | 0.175
60 | Cc1ccc(Sc2ccc(NC(=O)CCn3cncn3)cc2)cc1C (10 µM) | 0.0326 | 0.0429
61 | O=C(CCc1cccnc1)NCc1ccc(-c2ccc(Br)cc2)o1 (0.1 µM) | 0.0305 | 0.0756
62 | Cc1ccccc1Cc1cnc(NC(=O)c2ccc(C(N)=O)cn2)s1 (10 µM) | 0.143 | -0.0146
63 | COc1ccc(S(=O)(=O)NCCc2c(C)[nH]c3ccc(C)cc23)c2ccccc12 (10 µM) | 0.141 | -0.00519

Row | SMILES | XPO1 fluorescence intensity change (log2) [1] | BRD4 median nuclear fluorescence intensity change (log2) [2]
64 | Cc1ccc(NC(=O)CCC(=O)N/N=C/c2ccc([N+](=O)[O-])o2)cc1C (10 µM) | -0.0276 | 0.0277
65 | CCCCN1C(=O)C(O)(c2c(C)nn(CCO)c2N)c2ccccc21 (configuration not stated) (1 µM) | -0.0737 | 0.0207
66 | CC(C)NCC(O)Cn1c2ccc(Cl)cc2c2cc(Cl)ccc21 (configuration not stated) (1 µM) | 0.212 | 0.258
67 | CN(Cc1ccccc1)C(=O)CCCNc1ccnc2cc(Cl)ccc12 (10 µM) | -0.149 | 0.109
68 | COc1ccc2nc(C)cc(Sc3nnnn3C)c2c1 (10 µM) | -0.072 | -0.0188
69 | Cc1ccccc1OCCN(C)C(=O)Nc1ccc2c(c1)OCO2 (10 µM) | -0.0227 | 0.093
70 | CCOc1ccc(NC(=O)Nc2ccccc2F)cc1 (1 µM) | 0.183 | 0.0149
71 | COc1cc2c(cc1OC)CN(C(C)C(=O)Nc1ccccc1Cl)CC2 (configuration not stated) (10 µM) | 0.131 | 0.0306
72 | O=C(NCCc1nnc2ccccn12)c1ccc(-c2ccccc2F)s1 (10 µM) | -0.00836 | -0.045
73 | CN(CC(=O)NCc1ccco1)C(=O)c1ccc(COc2ccccc2)o1 (10 µM) | -0.0863 | -0.0313
74 | CC(=O)Nc1ccc(NC(=O)Cc2noc3ccccc23)cc1 (10 µM) | -0.202 | -0.067
75 | O=S(=O)(Cc1cccc(Cl)c1)c1nc2ccccc2s1 (0.1 µM) | -0.0453 | -0.0255
76 | CC(C)N(C[C@H]1O[C@@H](n2cnc3c(N)ncnc32)[C@H](O)[C@@H]1O)[C@H]1C[C@@H](CCc2nc3cc(C(C)(C)C)ccc3[nH]2)C1 (10 µM) | -0.177 | -0.0187
77 | Cc1cccc(CN(Cc2ccc(OCCCCl)cc2)Cc2cccc(C)n2)n1 (10 µM) | 0.0142 | 0.00131
78 | O=S(=O)(Nc1ccc(Cl)c2cccnc12)c1ccccc1 (10 µM) | -0.27 | 0.0514
79 | CCOC(=O)C1=C(C)NC(SC)=C(C#N)C1CC(C)C (configuration not stated) (0.1 µM) | -0.139 | 0.0339
80 | Cc1nc2c(-c3ccccc3)cnn2c(NCc2ccccn2)c1C (10 µM) | 0.149 | 0.0825
81 | CCc1ccc(NC(=O)c2nnc(CCl)s2)cc1 (10 µM) | -0.00549 | 0.0754

In the list so far, these contain a COOH group:
Row | SMILES | XPO1 fluorescence intensity change (log2) [1] | BRD4 median nuclear fluorescence intensity change (log2) [2]
5 | O=C(O)CSc1cc(NS(=O)(=O)c2ccc(Br)cc2)c2ccccc2c1O (10 µM) | -0.165 | -0.0604
35 | Nc1nc2c(c(=O)[nH]1)N1C(=O)N(c3ccc(C(=O)N[C@@H](CCC(=O)O)C(=O)O)cc3)CC1CN2 (some centres not stated) (5 µM) | 0.0534 | -0.0571
